The values below come from article PMC5923425, “Structural analysis of human ARS2 as a platform for co-transcriptional RNA sorting” (Nature Communications, 2018).

Amino acid sequences for entries named in this document (tags omitted). Residues count along the entry.
UniProt Q9UKL3, residues 903-943: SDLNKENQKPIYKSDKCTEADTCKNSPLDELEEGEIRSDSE

Positions count from the first letter of the chain named. In names and notes the source's numbering stands. No constants are given. Whether binding was seen depends on the method and setting.

For test [1], the target named is T1, scrambled FARB peptide.
T1 sequence (peptide): EGEIESELSEDDR
Nature of the test: ITC; MicroCal ITC200, 25 °C, ARS2 constructs with FLASH peptides; high salt (HS): buffer containing 250 mM NaCl; single-site fit; which partner was injected is not told; both purified.

Test [2] concerns the target T2, NCBP3^1–282 (human) (UniProt Q53F19).
T2 sequence: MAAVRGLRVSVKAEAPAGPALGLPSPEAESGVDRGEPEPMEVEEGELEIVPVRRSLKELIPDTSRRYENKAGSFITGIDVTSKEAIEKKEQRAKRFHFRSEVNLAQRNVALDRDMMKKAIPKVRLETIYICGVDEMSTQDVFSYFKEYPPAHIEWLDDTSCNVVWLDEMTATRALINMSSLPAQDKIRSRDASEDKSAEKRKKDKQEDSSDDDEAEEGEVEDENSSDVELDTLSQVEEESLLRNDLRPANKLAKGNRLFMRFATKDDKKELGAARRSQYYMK
In words: pull-down; purified recombinant NCBP3 constructs immobilised on m7GTP sepharose, incubated with CBP80 and/or wild type or mutant ARS2; eluted fractions on Coomassie-stained SDS-PAGE; both purified.

For test [3], the target named is T3, FARB (FLASH–ARS2-binding region) peptide of FLASH, residues 931–943.
T3 sequence (peptide): DELEEGEIRSDSE
In words: ITC; MicroCal ITC200, 25 °C, ARS2 constructs with FLASH peptides; high salt (HS): buffer containing 250 mM NaCl; single-site fit; which partner was injected is not told; both purified.

For test [4], the target named is GST–FLASH^903–943 (UniProt Q9UKL3). In words: pull-down; GST–FLASH 903–943 (or GST as control) immobilised on glutathione sepharose, incubated with purified ARS2 constructs 30 min at 10 °C; flow-through, wash and elution on Coomassie-stained SDS-PAGE; both purified.
Test [5] addresses T2, NCBP3^1–282 (human). In words: ITC; MicroCal ITC200, 25 °C, ARS2 constructs with NCBP3 1–282; buffer containing 250 mM NaCl; injections of 2.5 µL; both purified.

B1: ARS2^147–871 (domain or fragment, UniProt Q9BXP5-4 147-871)
chain: PVMKTFKEFLLSLDDSVDETEAVKRYNDYKLDFRRQQMQDFFLAHKDEEWFRSKYHPDEVGKRRQEARGALQNRLRVFLSLMETGWFDNLLLDIDKADAIVKMLDAAVIKMEGGTENDLRILEQEEEEEQAGKPGEPSKKEEGRAGAGLGDGERKTNDKDEKKEDGKQAENDSSNDDKTKKSEGDGDKEEKKEDSEKEAKKSSKKRNRKHSGDDSFDEGSVSESESESESGQAEEEKEEAEALKEKEKPKEEEWEKPKDAAGLECKPRPLHKTCSLFMRNIAPNISRAEIISLCKRYPGFMRVALSEPQPERRFFRRGWVTFDRSVNIKEICWNLQNIRLRECELSPGVNRDLTRRVRNINGITQHKQIVRNDIKLAAKLIHTLDDRTQLWASEPGTPPLPTSLPSQNPILKNITDYLIEEVSAEEEELLGSSGGAPPEEPPKEGNPAEINVERDEKLIKVLDKLLLYLRIVHSLDYYNTCEYPNEDEMPNRCGIIHVRGPMPPNRISHGEVLEWQKTFEEKLTPLLSVRESLSEEEAQKMGRKDPEQEVEKFVTSNTQELGKDKWLCPLSGKKFKGPEFVRKHIFNKHAEKIEEVKKEVAFFNNFLTDAKRPALPEIKPAQPPGPAQSLTPGLPYPHQTPQGLMPYGQPRPPILGYGAGAVRPAVPTGGPPYPHAPYGAGRGNYDAFRGQGGYPGKPRNRMVRGDPRAIVEYRDLDAPDDVDFF
For B1, the binding entry in test [1] is listed as “no binding”.

B2: ARS2^(147–871 K719A K722A K734A) (domain or fragment, UniProt Q9BXP5-4 147-871)
chain: B1 chain with K573A, K576A, K588A
With B2, the binding entry in test [2], in test [3], in test [4] and in test [5] was “no binding” each time.
